Assay results published in paper PMC12990809.
The direction of at least one scale is not stated here. For some assays here: Where a protein sequence is shown, tags need not be part of it.

By UniProt entry, the sequences of proteins in these tests, tags left out. Where a name states a change or a piece, a line headed by the entry shows the natural chain unless it says otherwise. Chains listed by the source or under a name are the forms on record and can include a tag or linker.
UniProt Q15366, other isoform, or with tags, fused parts or gaps: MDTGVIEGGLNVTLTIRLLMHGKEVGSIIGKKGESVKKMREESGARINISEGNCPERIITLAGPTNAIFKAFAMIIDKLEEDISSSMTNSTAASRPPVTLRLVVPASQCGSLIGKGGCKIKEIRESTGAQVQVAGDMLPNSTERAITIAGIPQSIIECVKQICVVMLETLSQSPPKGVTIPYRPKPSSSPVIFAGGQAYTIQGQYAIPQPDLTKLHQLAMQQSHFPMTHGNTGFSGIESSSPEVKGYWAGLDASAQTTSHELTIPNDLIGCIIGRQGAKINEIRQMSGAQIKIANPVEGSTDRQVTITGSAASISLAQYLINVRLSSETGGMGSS
UniProt Q9Y6M1: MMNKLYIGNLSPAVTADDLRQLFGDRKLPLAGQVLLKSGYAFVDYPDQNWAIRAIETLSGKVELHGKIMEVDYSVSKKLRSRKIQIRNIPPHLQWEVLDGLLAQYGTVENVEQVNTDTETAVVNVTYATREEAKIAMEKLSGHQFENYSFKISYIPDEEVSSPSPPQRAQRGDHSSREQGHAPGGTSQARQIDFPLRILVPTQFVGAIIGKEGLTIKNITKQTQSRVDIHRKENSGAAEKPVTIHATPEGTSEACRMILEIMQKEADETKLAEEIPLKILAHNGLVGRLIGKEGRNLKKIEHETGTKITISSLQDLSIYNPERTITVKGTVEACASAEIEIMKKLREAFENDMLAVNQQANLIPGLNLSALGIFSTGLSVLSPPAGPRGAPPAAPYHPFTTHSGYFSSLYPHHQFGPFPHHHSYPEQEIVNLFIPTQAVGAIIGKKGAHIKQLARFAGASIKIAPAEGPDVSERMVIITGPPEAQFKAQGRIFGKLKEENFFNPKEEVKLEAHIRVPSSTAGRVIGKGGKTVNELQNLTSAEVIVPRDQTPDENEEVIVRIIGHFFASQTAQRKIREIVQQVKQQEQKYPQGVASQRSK
UniProt Q9ZPX8: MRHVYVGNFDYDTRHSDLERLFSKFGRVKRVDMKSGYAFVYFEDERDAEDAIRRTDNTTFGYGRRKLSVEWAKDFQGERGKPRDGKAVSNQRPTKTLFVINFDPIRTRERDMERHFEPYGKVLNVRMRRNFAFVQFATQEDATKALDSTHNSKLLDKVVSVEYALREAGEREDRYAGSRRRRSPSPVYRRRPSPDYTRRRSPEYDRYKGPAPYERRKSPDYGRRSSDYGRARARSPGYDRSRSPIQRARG

Columns and labels:
Assay in all cases: pull-down
[1] = biological target: T1, PK05280.1 (Cannabis sativa) (UniProt A0A7J6GSE1); settings: 20 nM protein, 1.5 uM RNA pool; 20 mM HEPES pH 7.8, 70 mM KCl, 10 mM NaCl, 10% glycerol, 2 mM DTT, 0.1 ug/uL BSA; 30 min, 4 C; purified recombinant protein; residues 468-656; protein details: N-terminal GST (kept); only the motif is given
T1 sequence: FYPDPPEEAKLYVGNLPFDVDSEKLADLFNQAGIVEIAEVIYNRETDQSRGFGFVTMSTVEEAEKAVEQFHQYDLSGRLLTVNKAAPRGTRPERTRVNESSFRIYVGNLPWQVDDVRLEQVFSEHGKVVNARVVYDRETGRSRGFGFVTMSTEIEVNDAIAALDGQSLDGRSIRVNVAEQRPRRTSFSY

[2] = biological target: T2, heph (Drosophila melanogaster) (UniProt E1JJ41); settings: 20 nM protein, 1.5 uM RNA pool; 20 mM HEPES pH 7.8, 70 mM KCl, 10 mM NaCl, 10% glycerol, 2 mM DTT, 0.1 ug/uL BSA; 30 min, 4 C; purified recombinant protein; residues 358-789; protein details: N-terminal GST (kept); only the motif is given
T2 sequence: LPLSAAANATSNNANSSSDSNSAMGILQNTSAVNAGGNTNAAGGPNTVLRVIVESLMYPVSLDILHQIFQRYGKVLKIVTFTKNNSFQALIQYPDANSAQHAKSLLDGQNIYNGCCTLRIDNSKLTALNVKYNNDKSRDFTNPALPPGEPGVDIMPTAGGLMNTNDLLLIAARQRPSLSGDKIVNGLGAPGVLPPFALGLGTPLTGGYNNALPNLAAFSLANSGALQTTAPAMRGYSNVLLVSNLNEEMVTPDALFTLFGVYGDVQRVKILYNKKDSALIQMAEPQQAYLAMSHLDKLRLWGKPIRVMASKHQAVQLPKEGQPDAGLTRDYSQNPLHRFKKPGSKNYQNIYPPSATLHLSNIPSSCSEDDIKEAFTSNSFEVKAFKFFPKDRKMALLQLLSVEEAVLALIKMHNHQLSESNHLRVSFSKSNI

[3] = biological target: T3, ANIA_03953 (Aspergillus nidulans) (UniProt Q5B677); settings: 20 nM protein, 1.5 uM RNA pool; 20 mM HEPES pH 7.8, 70 mM KCl, 10 mM NaCl, 10% glycerol, 2 mM DTT, 0.1 ug/uL BSA; 30 min, 4 C; purified recombinant protein; residues 179-349; protein details: N-terminal GST (kept); only the motif is given; cited from earlier work
T3 sequence: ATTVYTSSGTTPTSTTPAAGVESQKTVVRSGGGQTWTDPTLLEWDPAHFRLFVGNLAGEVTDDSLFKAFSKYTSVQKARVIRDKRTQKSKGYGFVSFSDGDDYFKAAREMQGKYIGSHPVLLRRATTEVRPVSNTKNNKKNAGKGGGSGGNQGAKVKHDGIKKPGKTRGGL

[4] = biological target: T4, PPRC1 (Homo sapiens) (UniProt Q5VV67); settings: 20 nM protein, 1.5 uM RNA pool; 20 mM HEPES pH 7.8, 70 mM KCl, 10 mM NaCl, 10% glycerol, 2 mM DTT, 0.1 ug/uL BSA; 30 min, 4 C; purified recombinant protein; residues 1495-1658; protein details: N-terminal GST (kept); only the motif is given; cited from earlier work
T4 sequence: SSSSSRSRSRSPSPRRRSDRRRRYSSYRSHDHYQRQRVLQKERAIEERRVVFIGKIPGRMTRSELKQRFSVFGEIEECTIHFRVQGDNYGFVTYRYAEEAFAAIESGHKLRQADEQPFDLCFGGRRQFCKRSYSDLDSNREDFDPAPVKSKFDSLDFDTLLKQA

[5] = biological target: PCBP2 (Homo sapiens) (UniProt Q15366); settings: 20 nM protein, 1.5 uM RNA pool; 20 mM HEPES pH 7.8, 70 mM KCl, 10 mM NaCl, 10% glycerol, 2 mM DTT, 0.1 ug/uL BSA; 30 min, 4 C; purified recombinant protein; only the motif is given; cited from earlier work
[6] = biological target: IGF2BP2 (Homo sapiens) (UniProt Q9Y6M1); settings: 20 nM protein, 1.5 uM RNA pool; 20 mM HEPES pH 7.8, 70 mM KCl, 10 mM NaCl, 10% glycerol, 2 mM DTT, 0.1 ug/uL BSA; 30 min, 4 C; purified recombinant protein; protein details: N-terminal GST (kept); only the motif is given; cited from earlier work
[7] = biological target: T5, CG4887 (Drosophila melanogaster) (UniProt M9W6K3); settings: 20 nM protein, 1.5 uM RNA pool; 20 mM HEPES pH 7.8, 70 mM KCl, 10 mM NaCl, 10% glycerol, 2 mM DTT, 0.1 ug/uL BSA; 30 min, 4 C; purified recombinant protein; residues 223-517; protein details: N-terminal GST (kept); only the motif is given
T5 sequence: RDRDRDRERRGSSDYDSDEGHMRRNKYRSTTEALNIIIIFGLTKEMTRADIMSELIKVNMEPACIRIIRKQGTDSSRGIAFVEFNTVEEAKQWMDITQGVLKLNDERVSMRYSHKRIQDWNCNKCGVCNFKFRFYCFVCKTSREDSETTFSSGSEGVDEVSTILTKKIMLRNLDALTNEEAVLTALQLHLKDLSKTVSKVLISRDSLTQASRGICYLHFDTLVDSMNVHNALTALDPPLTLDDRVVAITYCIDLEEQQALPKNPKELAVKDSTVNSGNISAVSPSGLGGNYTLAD

[8] = biological target: T6, tra2b (Tetraodon nigroviridis) (UniProt H3C228); settings: 20 nM protein, 1.5 uM RNA pool; 20 mM HEPES pH 7.8, 70 mM KCl, 10 mM NaCl, 10% glycerol, 2 mM DTT, 0.1 ug/uL BSA; 30 min, 4 C; purified recombinant protein; protein details: N-terminal GST (kept); only the motif is given
T6 sequence: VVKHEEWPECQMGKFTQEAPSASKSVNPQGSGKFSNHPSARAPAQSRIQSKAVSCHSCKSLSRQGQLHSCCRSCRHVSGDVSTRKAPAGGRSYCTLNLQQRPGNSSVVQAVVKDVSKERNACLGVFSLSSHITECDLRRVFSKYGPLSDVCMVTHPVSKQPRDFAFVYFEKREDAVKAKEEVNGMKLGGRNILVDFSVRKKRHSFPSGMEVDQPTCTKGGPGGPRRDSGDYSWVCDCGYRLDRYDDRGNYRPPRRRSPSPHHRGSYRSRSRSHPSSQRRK

[9] = biological target: T7, MATR3 (Homo sapiens) (UniProt P43243); settings: 20 nM protein, 1.5 uM RNA pool; 20 mM HEPES pH 7.8, 70 mM KCl, 10 mM NaCl, 10% glycerol, 2 mM DTT, 0.1 ug/uL BSA; 30 min, 4 C; purified recombinant protein; residues 362-614; protein details: N-terminal GST (kept); only the motif is given; cited from earlier work
T7 sequence: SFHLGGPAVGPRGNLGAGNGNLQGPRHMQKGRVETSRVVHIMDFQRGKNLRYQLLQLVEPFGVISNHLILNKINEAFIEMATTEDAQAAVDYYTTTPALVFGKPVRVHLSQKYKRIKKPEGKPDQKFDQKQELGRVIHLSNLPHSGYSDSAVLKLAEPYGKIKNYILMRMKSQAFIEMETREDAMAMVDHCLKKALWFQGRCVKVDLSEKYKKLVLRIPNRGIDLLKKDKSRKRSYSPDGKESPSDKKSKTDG

[10] = biological target: T8, RBM38 (Homo sapiens) (UniProt Q9H0Z9); settings: 20 nM protein, 1.5 uM RNA pool; 20 mM HEPES pH 7.8, 70 mM KCl, 10 mM NaCl, 10% glycerol, 2 mM DTT, 0.1 ug/uL BSA; 30 min, 4 C; purified recombinant protein; residues 24-239; protein details: N-terminal GST (kept); only the motif is given
T8 sequence: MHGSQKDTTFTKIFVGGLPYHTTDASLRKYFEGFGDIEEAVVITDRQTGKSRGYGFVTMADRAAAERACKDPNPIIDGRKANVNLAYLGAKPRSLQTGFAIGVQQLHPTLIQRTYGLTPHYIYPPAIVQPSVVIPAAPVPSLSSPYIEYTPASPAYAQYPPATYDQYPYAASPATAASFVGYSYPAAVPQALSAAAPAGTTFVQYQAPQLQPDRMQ

[11] = biological target: T9, RBM34 (Homo sapiens) (UniProt P42696); settings: 20 nM protein, 1.5 uM RNA pool; 20 mM HEPES pH 7.8, 70 mM KCl, 10 mM NaCl, 10% glycerol, 2 mM DTT, 0.1 ug/uL BSA; 30 min, 4 C; purified recombinant protein; residues 137-407; protein details: N-terminal GST (kept); only the motif is given
T9 sequence: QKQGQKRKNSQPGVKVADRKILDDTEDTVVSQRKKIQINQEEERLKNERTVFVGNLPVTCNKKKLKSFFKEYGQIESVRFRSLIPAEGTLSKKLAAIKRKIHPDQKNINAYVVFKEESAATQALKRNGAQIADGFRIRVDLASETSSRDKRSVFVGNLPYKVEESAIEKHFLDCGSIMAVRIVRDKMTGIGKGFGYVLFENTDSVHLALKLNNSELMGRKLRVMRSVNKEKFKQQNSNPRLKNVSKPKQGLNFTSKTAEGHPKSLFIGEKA

[12] = biological target: T10, Imp G35C (Drosophila melanogaster) (UniProt Q7K0H6); settings: 20 nM protein, 1.5 uM RNA pool; 20 mM HEPES pH 7.8, 70 mM KCl, 10 mM NaCl, 10% glycerol, 2 mM DTT, 0.1 ug/uL BSA; 30 min, 4 C; purified recombinant protein; residues 29-499; protein details: N-terminal GST (kept); only the motif is given
T10 sequence: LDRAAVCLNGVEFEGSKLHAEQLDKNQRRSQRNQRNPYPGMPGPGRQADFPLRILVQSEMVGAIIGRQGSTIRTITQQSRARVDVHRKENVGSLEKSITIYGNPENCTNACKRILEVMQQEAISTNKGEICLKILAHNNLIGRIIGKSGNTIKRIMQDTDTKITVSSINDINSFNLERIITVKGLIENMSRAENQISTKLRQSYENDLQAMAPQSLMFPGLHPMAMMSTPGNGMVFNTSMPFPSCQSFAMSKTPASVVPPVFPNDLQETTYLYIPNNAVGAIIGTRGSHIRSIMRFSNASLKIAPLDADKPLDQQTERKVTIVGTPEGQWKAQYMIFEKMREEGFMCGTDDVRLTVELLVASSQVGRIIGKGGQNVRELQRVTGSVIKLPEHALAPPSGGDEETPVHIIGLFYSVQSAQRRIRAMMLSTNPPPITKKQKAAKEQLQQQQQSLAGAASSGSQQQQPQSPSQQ

[13] = biological target: T11, PK13173.1 K103R (Cannabis sativa) (UniProt A0A803Q923); settings: 20 nM protein, 1.5 uM RNA pool; 20 mM HEPES pH 7.8, 70 mM KCl, 10 mM NaCl, 10% glycerol, 2 mM DTT, 0.1 ug/uL BSA; 30 min, 4 C; purified recombinant protein; residues 1-123; protein details: N-terminal GST (kept); only the motif is given
T11 sequence: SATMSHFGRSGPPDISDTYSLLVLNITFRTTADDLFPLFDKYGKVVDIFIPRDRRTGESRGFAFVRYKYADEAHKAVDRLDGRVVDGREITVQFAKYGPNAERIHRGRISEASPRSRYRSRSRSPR

[14] = biological target: T12, RS31A (Arabidopsis thaliana) (UniProt Q9ZPX8); settings: 20 nM protein, 1.5 uM RNA pool; 20 mM HEPES pH 7.8, 70 mM KCl, 10 mM NaCl, 10% glycerol, 2 mM DTT, 0.1 ug/uL BSA; 30 min, 4 C; purified recombinant protein; residues 1-184; protein details: N-terminal GST (kept); only the motif is given
T12 sequence: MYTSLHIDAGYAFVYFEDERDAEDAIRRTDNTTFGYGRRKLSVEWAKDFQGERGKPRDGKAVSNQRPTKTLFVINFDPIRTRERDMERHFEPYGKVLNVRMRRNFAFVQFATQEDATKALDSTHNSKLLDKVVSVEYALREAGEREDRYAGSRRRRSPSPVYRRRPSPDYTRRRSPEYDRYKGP

Work on GAUACAA [RNAcompete motif RNCMPT00862] yielded a binding signal (z-score (mean of top ten 7-mers)) [1] of 5.4.
Work on AUUUUC [RNAcompete motif RNCMPT00788] yielded a binding signal (z-score (mean of top ten 7-mers)) [2] of 5.47.
In the case of CUACUA [RNAcompete motif RNCMPT00287], the binding signal (z-score (mean of top ten 7-mers)) [3] is given as 5.22.
For GCCCGCCG [RNAcompete motif RNCMPT00045], the binding signal (z-score (mean of top ten 7-mers)) [4] is listed as 5.
For CCCCCCC [RNAcompete motif RNCMPT00044], the binding signal (z-score (mean of top ten 7-mers)) [5] is given as 3.74.
In the case of AAACAA [RNAcompete motif RNCMPT00033], the binding signal (z-score (mean of top ten 7-mers)) [6] is given as 5.73.
ACGAGGG [RNAcompete motif RNCMPT00838] gave a binding signal (z-score (mean of top ten 7-mers)) [7] of 5.93.
Sequence UCUUCAG [RNAcompete motif RNCMPT01669] has a binding signal (z-score (mean of top ten 7-mers)) [8] of 5.71.
For AUCUUG [RNAcompete motif RNCMPT00037], the binding signal (z-score (mean of top ten 7-mers)) [9] is given as 5.42.
GAGUGU [RNAcompete motif RNCMPT01687] gave a binding signal (z-score (mean of top ten 7-mers)) [10] of 5.16.
UUGAC [RNAcompete motif RNCMPT00819] gave a binding signal (z-score (mean of top ten 7-mers)) [11] of 5.79.
AACAAUAG [RNAcompete motif RNCMPT00787] showed a binding signal (z-score (mean of top ten 7-mers)) [12] of 5.31.
AGAUGAA [RNAcompete motif RNCMPT00366] gave a binding signal (z-score (mean of top ten 7-mers)) [13] of 5.75.
With GACGA [RNAcompete motif RNCMPT00329] the binding signal (z-score (mean of top ten 7-mers)) [14] was 5.91.
